According to PubChem BioAssay AID1688 (National Center for Advancing Translational Sciences (NCATS), 2009):
Hit rate of the full screen: of about 220,000 compounds, about 2,400 (1.1%) were called active. The shares of active, inactive and inconclusive entries below differ from those in the screen. The call rests on the fitted dose curve; in most records, active means well fitted inhibition curve with a large enough effect; inconclusive means small, poorly fitted or top-dose-only effect, or effect the other way; inactive means no such curve, though single readings can be large or run the other way. A potency beside an inconclusive call is a rough fit, not a confirmed value.

Assay: qHTS Multiplex Assay to Identify Dual Action Probes in a Cell Model of Huntington: Aggregate Formation (GFP); further: nearly all actives have a fitted effect of over 60% in size
Conditions: PC12 HttQ103-GFP aggregates, Acumen cytometry, 40 h; activity change, negative = inhibition: at 46.1 µM (top of the series) unless noted
How it was run: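 Inducible Q103 Huntingtin exon 1–GFP PC12 line, 1500 cells/well in phenol red free DMEM with 5% equine and 5% calf serum. Tebufenozide 100 nM induced expression; compounds titrated; aggregates quantified by cytometry.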
On the % scale 0 is the no-effect control and ±100 the full control effect; potency means the concentration at half of the fitted maximal effect.

Which Potency does the source give for `COC(=O)C1=C(O)/C(=C\c2cc(C)n(-c3ccc(F)cc3)c2C)N=C1C` here?
Its Potency is “inactive”.

Which Potency does the source give for `O=C(O)c1ccc(C2CCCCC2)cn1` here?
Its Potency is active: 3.16 µM.

Which Potency does the source give for `CCC(C)Sc1nc2c(cnn2-c2ccccc2)c(=O)[nH]1` (centres undefined) here?
Its Potency is inconclusive: 0.501 µM [activator, partial curve, poor fit].

For `CSc1ncccc1C(=O)OCc1ccc(COC(=O)c2cccnc2SC)cc1`, which Potency is on record?
Its Potency is “inactive”.

With `CN(c1ccccc1)P(=O)(N(C)c1ccccc1)N(C)c1ccccc1` as the compound, how does the Potency read?
The Potency was inconclusive: 14.1 µM [inhibitor, single point].

For `N#CC1=C(N)Oc2c(ccc3cccnc23)C1c1cccnc1` (centres undefined), which Potency is on record?
Its Potency is inconclusive: 10 µM [inhibitor, partial curve].

Which Potency does the source give for `CC1(C)Oc2ccccc2OC1(O)c1ccc2ccccc2n1` (centres undefined) here?
Its Potency is inconclusive: 17.8 µM [activator, single point].

Which Potency does the source give for `CN(c1ccccc1)c1nc2ccsc2c(=O)s1` here?
The Potency was “inactive”.

With `COc1ccc(C(C(=O)NC2CCCCC2)N(Cc2cccs2)C(=O)Cc2c[nH]c3ccccc23)cc1` (centres undefined) as the compound, how does the Potency read?
The Potency was inconclusive: 35.5 µM [inhibitor, single point].

Which Potency does the source give for `Cc1ccc(N=C2NC(=O)/C(=C/c3cn(C)c4ccccc34)S2)cc1C` here?
Its Potency is inconclusive: 11.2 µM [inhibitor, partial curve].

For `Oc1ccc(COCc2ccccc2)c2cccnc12`, which Potency is on record?
Its Potency is inconclusive: 7.08 µM [inhibitor, partial curve].

Which Potency does the source give for `COC(=O)c1ccc2nc(C(F)(F)F)[nH]c2c1` here?
Its Potency is inconclusive: 22.4 µM [inhibitor, single point].

With `O=C(O)CCCN(Cc1cccc(Br)c1)S(=O)(=O)c1ccc(Br)cc1` as the compound, how does the Potency read?
The Potency was inconclusive: 35.5 µM [inhibitor, single point].

Which Potency does the source give for `CC1(C)CC(=O)c2cnc(N3CCc4ccccc4C3)nc2C1` here?
Its Potency is inconclusive: 3.16 µM [activator, partial curve].

With `Cc1cc(CNC(=O)COc2ccc(F)cc2)c2ccccc2n1` as the compound, how does the Potency read?
Its Potency is inconclusive: 35.5 µM [inhibitor, single point].

Which Potency does the source give for `O=C(CCCCCNC(=O)c1ccccc1)C[N+](=O)[O-]` here?
Its Potency is inconclusive: 5.62 µM [activator, full curve, poor fit].

With `CCCCSc1nc2c(c(=O)n1CC)SC(C)C2` (centres undefined) as the compound, how does the Potency read?
Its Potency is inconclusive: 0.631 µM [inhibitor, single point].

For `O=C1c2ccccc2C(=O)C12OC2c1ccc(Cl)cc1Cl` (centres undefined), which Potency is on record?
The Potency was active: 25.1 µM.

With `Cc1ccc(/C=C/c2ccc(=O)n(Cc3ccccc3Cl)n2)cc1` as the compound, how does the Potency read?
Its Potency is inconclusive: 25.1 µM [inhibitor, single point].

Which Potency does the source give for `Cc1nc(C)c(C(=O)N(c2ccc(C)c(C)c2)C(C(=O)NCc2ccco2)c2ccccc2)s1` (centres undefined) here?
Its Potency is inconclusive: 11.2 µM [inhibitor, partial curve, poor fit].

With `CCn1c(SCc2ccccc2)nnc1-c1ccc(S(=O)(=O)N2CCCCC2)cc1` as the compound, how does the Potency read?
The Potency was inconclusive: 17.8 µM [inhibitor, single point].

For `CCc1ccc2[nH]c(=O)c(CN(Cc3ccc4c(c3)OCO4)C(=O)c3ccco3)cc2c1`, which Potency is on record?
Its Potency is inconclusive: 35.5 µM [inhibitor, single point].

Which Potency does the source give for `Cc1ccc(NC(=O)CSC(C)C(=O)NCCc2ccccn2)cc1` (centres undefined) here?
Its Potency is inconclusive: 2.82 µM [activator, full curve, poor fit].

For `CCCC(C(=O)NC1CCCC1)N(C(=O)Cn1nnc(-c2ccc(C)o2)n1)c1ccccc1OC` (centres undefined), which Potency is on record?
Its Potency is “inactive”.

Which Potency does the source give for `Cc1cc(C(=O)CN2C(=O)NC(C)(c3cccc(Br)c3)C2=O)c(C)n1Cc1ccco1` (centres undefined) here?
The Potency was inconclusive: 35.5 µM [inhibitor, single point].

For `Cc1cc(-c2n[nH]c(=S)n2/N=C/C(Br)=C/c2ccccc2)n[nH]1`, which Potency is on record?
The Potency was inconclusive: 5.62 µM [inhibitor, single point].

Which Potency does the source give for `O=S(=O)(c1ccc2ccccc2c1)N(CC(O)COCc1ccco1)c1ccccc1` (centres undefined) here?
Its Potency is inconclusive: 22.4 µM [inhibitor, single point].

For `COc1ccc(CC(=O)Nc2cccc(-c3csc(C)n3)c2)cc1`, which Potency is on record?
The Potency was inconclusive: 1.26 µM [inhibitor, partial curve].

With `O=C(Nc1nnc(-c2ccc(F)cc2)o1)c1cc(Cl)sc1Cl` as the compound, how does the Potency read?
The Potency was active: 11.2 µM.

For `Cc1ccc(S(=O)(=O)Nc2cccc(Oc3cnccn3)c2)cc1`, which Potency is on record?
Its Potency is “inactive”.

With `COCCCNC(=S)NNC(=S)Nc1ccc(F)cc1F` as the compound, how does the activity change, negative = inhibition read?
Its activity change, negative = inhibition is inactive: 2% [at 9.22 µM].

For `CCOC(=O)C(NC(=O)Nc1ccc(F)cc1F)(Oc1ccccc1)C(F)(F)F` (centres undefined), which Potency is on record?
Its Potency is inconclusive: 0.562 µM [inhibitor, full curve, poor fit].

Which Potency does the source give for `CC(=O)c1c(C(C)=O)c(C)n(-c2nc(-c3ccc(C)c(C)c3)c(C)s2)c1C` here?
Its Potency is inconclusive: 25.1 µM [inhibitor, partial curve].

With `CCn1c(=O)cc(OCC(=O)Nc2ccc(OC)c(OC)c2)c2ccccc21` as the compound, how does the Potency read?
The Potency was “inactive”.

With `Cc1sc2nc(CN(CCc3ccccc3)C(=O)c3ccco3)[nH]c(=O)c2c1C` as the compound, how does the Potency read?
The Potency was “inactive”.

For `COC(=O)CC(=O)Cc1nc(N)nc(Nc2ccc(C)c(C)c2)n1`, which Potency is on record?
Its Potency is “inactive”.

For `Cc1cc(C)nc(SCCC(=O)Nc2cccc3ccccc23)n1`, which Potency is on record?
The Potency was inconclusive: 1.78 µM [activator, full curve, poor fit].

Which Potency does the source give for `COc1ccccc1-c1nnc(SCC(=O)Nc2c(Cl)cccc2Cl)o1` here?
The Potency was “inactive”.

With `O=C(NNC(=S)NC(=O)c1cn(-c2ccccc2)nc1-c1ccccc1)c1ccncc1` as the compound, how does the Potency read?
The Potency was inconclusive: 10 µM [inhibitor, partial curve].

Which Potency does the source give for `CC(=O)Nc1c2c(nn1-c1ccc(C)cc1C)CSC2` here?
Its Potency is inconclusive: 35.5 µM [activator, single point].

Which Potency does the source give for `Cc1csc(SCC(=O)Nc2ncc(Cl)c(C)c2Cl)n1` here?
Its Potency is inconclusive: 6.31 µM [inhibitor, single point].

For `CC1Cc2ccccc2N1C(=O)CSc1nc2ccccc2s1` (centres undefined), which Potency is on record?
The Potency was “inactive”.

For `CCOCCCNC(=O)c1ccc2c(c1)N=C(CC)c1cc(Br)ccc1S2`, which Potency is on record?
Its Potency is inconclusive: 0.178 µM [inhibitor, full curve, poor fit].

Which Potency does the source give for `CCCCn1c(-c2nonc2N)nc2ccccc21` here?
Its Potency is inconclusive: 3.16 µM [inhibitor, single point].
